Screen size: about 53,000 sequences; about 3,700 (7%) were called active.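 The calls were made as follows: active = gene knockdowns whose robust z-score for IL-1 alpha signal is at least 2 or at most -2, so actives lie on both sides; inactive = the rest.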 The list shows a part of the results.

This experiment can be described thus: Components of the Cytosolic LPS Sensing Pathway: Gene Identification via Genome-wide siRNA Screen.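 Also: robust z of the log signal after scaling to non-targeting control siRNA wells of the plate.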 The settings on record: RAW264.7 macrophages, IL-1a HTRF, actives lie on both sides, screened at 100 nM (by protocol), cells primed 5 h with Pam3CSK4 first. Summed up:
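IL-1a HTRF of supernatants after 24 hour LipidA transfection of Pam3CSK4-primed (5 hours) RAW264.7 cells, 48h post-siRNA transfection (100 nM). Scores: percent of plate negative-control median, then log-based robust z-score.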
(In general: Time-resolved FRET reads energy transfer from a long-lived donor to a nearby acceptor.)
Regarding GGUCUCACAGCAGUACUCATT against Clk4, the z-score is inactive: -1.46.
The result for GCUGCCUACCUGUGAAAGUTT against Pgam2 reads active: 2.82; that for GCCACCUAAUUUACAAUCUTT against Ccn3, inactive: 0.573; that for GGUGCUCAACAAGUGGACUTT against Htr1a, inactive: -0.319.
The value for GGUAUUUCCACUGUCCAGCTT against Cnih3 was inactive: -0.0157.
The result for GGACGAAGGUUUCUUUGAGTT against Samd8 reads inactive: -0.488.
GGUCAUGAAAAAGCUAACCTT against Dppa3: the z-score was inactive: -1.72.
The result for GGAGUUCGUACCCUUAUCCTT against Rtel1 reads active: -2.2; that for GCAGGUCUAAAACUCUCAUTT against Sfmbt1, active: 2.38; that for GGAAAUAAUAUUCCUGGGATT against Ino80, inactive: -0.911.
The value for GGGAGAAGAUGUCAACCGGTT against Mtpn was inactive: -0.0228; that for CGAGGUCUCAAUUACAUUATT against Pcolce2 was inactive: 0.188; that for GGAAUUCAUACCCUUGUUGTT against B3gnt5 was inactive: -0.486.
On to GGGAUUGGGACUGUUUUUGTT against Atp5g2, for which the z-score was inactive: 1.31.
The value for GCCAAUAAGAACAACGAUGTT against Des was inactive: 0.732; that for GGUGGACAAGACUAAAACATT against Podxl was inactive: -0.253.
With GGGACCUUUCCUGACCUAUTT against Ppdpf, the z-score was inactive: -0.362.
The value for CAAUAAUGAAUCCACGGUATT against Olfr728 was inactive: -0.0469.
The result for GGUGUCCAGAUUUACCUGUTT against Olfr429 reads inactive: -0.0842; that for GGAAAGUCAGGAUGAAUAUTT against Cst9, inactive: 0.0511.
The value for GCCAUUACUGAUCAAUCAGTT against Zfp958 was inactive: -0.726; that for GGGCUAGAGGAAAACGAAATT against Crot was inactive: 1.64; that for GGAAAAAUGGCAACUUCAATT against Dock3 was inactive: 0.766.
For the sequence CGAAAAGGCAAAGUAUGAATT against Hmgb4, the z-score is inactive: -1.07.
For the sequence GGAUUAGAGGCUAAGGCAGTT against Ankrd24, the z-score is inactive: -0.0277.
On to GGCUUCAAGCAAGUAAAGGTT against Cars, for which the z-score was inactive: -0.479.
Regarding CCAUUUGAACAGUCCGUCUTT against Nhlrc3, the z-score was inactive: -1.09.
Turning to GGACCAUGGAUAUUUAAAGTT against Mafk, the z-score is inactive: -0.297.
Take GCUUCCCGCUAUGAGUUCATT against Shisa7: the z-score is active: 2.24.
Consider GGCUGUUUAGAUGUAAUGUTT against Nek1, for which the z-score was inactive: -0.337.
The value for CCUUAUCCAGACAUAGAUUTT against Zfp940 was inactive: -1.17.
The result for GCACAUCUCAGCCUGAAUCTT against Cln6 reads inactive: 0.323.
The result for GGAGUACAGUGUGAGCAGATT against Dok4 reads inactive: -0.7; that for GGUAACAGUUCAACAGUAUTT against Olfr1039, inactive: -1.13.
Take GCAGCUUAAGUUGCCCAAGTT against Aatk: the z-score was inactive: -0.27.
With GGCUGAGGAUAUGAUGUUATT against Zic3, the z-score is inactive: 0.272.
The value for GGUCUACGUUAUUAUUACCTT against Etv2 was inactive: -0.537; that for GCUACAUGGAAAGAUACGGTT against Prokr2 was inactive: 0.723.
The result for GCACGAAGAACCACACAAGTT against Sp110 reads active: 2.37; that for GGCUCUGUAGCUAGCAAUATT against C77080, inactive: 0.168; that for GGUGGUUAGAUUGUCAUGCTT against Vmn1r171, inactive: 0.18.
As to GUCAUCUUGUUCCAUCUGATT against Olfr1269, the z-score is inactive: -1.12.
The result for CCUGGAUGUAGACUUCGCATT against Slc6a7 reads inactive: 0.273; that for GGUUUAUGGGACAGUUUUUTT against Plk2, active: 5.58.
The result for GGGAGCUACUACCUAUGAUTT against Dio2 reads inactive: -0.28.
The result for GGAAACUACCUACUACCCGTT against Tedc2 reads inactive: 0.192; that for GGGCUUCUAUUUGUUCCACTT against Lrfn5, inactive: 1.16; that for GCCCGUUCCUUUUAUGUAUTT against Klf3, inactive: -1.24.
For the sequence GGAACCAAGGAUGUGAAAGTT against Rab13, the z-score is active: -2.17.
For the sequence CCACUCUAUUUGUUUGAAATT against Adgb, the z-score was inactive: -0.476.
The result for GGAAAUUUCAAGAGCAAGATT against Rras2 reads inactive: -0.0864.
The result for GGUACAGGAUAAGCAAAUATT against Erp44 reads inactive: -0.545.
The result for GGGAACCUCCUUGUGAACATT against Nlk reads inactive: -0.0438.
As for GCACUAUGACUACAAGAGUTT against Olfr1457, the z-score is inactive: -0.965.
The value for CCGACUAAAGUGUUUAAUUTT against Pfkfb1 was inactive: 0.366; that for CCUGAUGUAACUAUAAACATT against Adam32 was inactive: -0.107.
The result for GCAGGAUCCUUAAUUUGGCTT against Nlrp4c reads inactive: 1.06; that for GCUCUACAGAUGCCACCACTT against Mlycd, inactive: -0.0476; that for GCAAUAAAUGGGAACUUACTT against Lrpprc, inactive: 0.139.
The result for GGAAUGAGAUGUUUUGAGUTT against Ostf1 reads inactive: -1.4; that for GCUACAUGGCUAGAAUAGATT against Eif2s2, inactive: -0.697; that for GGUGUGUCUGUGCUUAUUUTT against Olfr780, inactive: 0.343.
Consider GGAAAGAAACUACUUCAUCTT against Vash1, for which the z-score was inactive: -0.214.
Consider GGGUAAUGCAAAGAAAACATT against Dlc1, for which the z-score is inactive: -0.83.
The result for GGGUACAAGCUUAUCAAUATT against Trpm6 reads active: 4.91; that for GGAAGAGAGAGAAUUACUATT against Luc7l3, inactive: -1.17.
Regarding GGGACCUGAGGAAAACUGUTT against Ctdsp2, the z-score is inactive: 0.49.
The result for CCUUUGGUAGAGACCUUUUTT against Elp2 reads inactive: -0.31.
Consider CCUUUACACCACUCUAUUUTT against Adgb, for which the z-score is inactive: -0.795.
Take GCUACAUGUACCAGACAAATT against Hspb7: the z-score is inactive: 0.0612.
The result for GGCGUGAAAAUAGGAGAAUTT against Extl2 reads inactive: -1.77; that for GCAAGGCGGAGAGUAAAAGTT against Lypd11, inactive: -1.51.
The value for CGAGAUUUUUCAUGAUGUGTT against Slc4a8 was inactive: -0.0121.
Take CCAAACUAGGAGACAUAAUTT against Dhx38: the z-score was inactive: -0.238.
For the sequence GCACCCUCUUUCAAGAAACTT against Olfr331, the z-score was inactive: -0.777.
CCUUUUGAAACGUACAGCGTT against Gpr182: the z-score was inactive: 1.12.
With GGUGGUGGUGUUCCUCAAGTT against Glrx5, the z-score was inactive: -0.883.
Consider GGGUGAUCCCUGAAUAUUGTT against Arcn1, for which the z-score was inactive: -0.863.
As for GGACAAGGCAAAGGCCUAUTT against Phka1, the z-score was inactive: 1.94.
The value for GGUCAUCUUCCGAUACUGUTT against Pspn was inactive: 0.936.
The value for GCUAUCCUCAAUUGCACACTT against Atxn3 was inactive: 1.49.
The value for AUGAUUCCCUACCAGAUCGTT against Pfdn4 was inactive: 1.36; that for UCACUGUACCAUUCAUAUGTT against Olfr50 was inactive: 1.17; that for CGUAUUUGUGGCAUAUUAGTT against Olfr1183 was inactive: -0.128.
For the sequence GGAUAUCCUUCUGUCCAGUTT against Tyr, the z-score is inactive: -0.977.
The value for GGUUGGGAUACAUUCAACGTT against Slc25a37 was inactive: -0.297; that for GGAUCUAUGGGUAUCCUGCTT against Adam1a was inactive: -1.8; that for GGAAAUUGCUCAAAAAAGGTT against Asb3 was inactive: 0.725.
With GCAAGAUUCAUUGUCACUGTT against Ezr, the z-score is inactive: -0.432.
Take “GGUGUAGGCUCCCUGACAUTT against C130046B21Rik”: the z-score is inactive: 0.0693.
The result for GGUACUCCCGAUCUGCUAUTT against Rpl6 reads inactive: 1.15.
The result for GGGAAACUUCUUCAUGGGUTT against Dazap2 reads inactive: 0.0384; that for GCAUAUGAACCUAAAACCCTT against Spred3, inactive: -1.75; that for GGUGACUUUUUGGUACAGATT against Mthfr, inactive: 0.558.
Consider GGAAGGAGAACAUUCCUUUTT against Ces1d, for which the z-score was inactive: -0.198.
The result for GGUGCAAGGUUCUUGUGUUTT against Mcmdc2 reads inactive: -1.48; that for CGAACCCUGAAAGAACAUATT against Slc5a12, inactive: -0.971.
The value for GCACUCAGCUAGGUGAAGATT against Hnrnpul1 was inactive: -0.186; that for GCUAUAAGCUCAGGUUUGUTT against Osbpl10 was inactive: 0.115; that for GGAGAUAUCCUUUUGCUCUTT against Tbc1d1 was inactive: -0.419.
Turning to GGUGUAACUGGGCUGCAUGTT against Avpi1, the z-score is inactive: 0.269.
Regarding GUUCGCUGAACACGUCUUCTT against Hpcal1, the z-score is inactive: 0.549.
In the case of GCUUGAGUAGUGCAGAAACTT against Jmjd1c, the z-score was inactive: -1.15.
The result for CGAAAAGAUAAGCCCUUAATT against Mphosph10 reads inactive: 0.776.
The result for CCUUGCUCAAUGUUUUGGATT against Obscn reads inactive: 1.73; that for GCAUCAAGUCUGAGCGACUTT against Mef2b, inactive: -0.347; that for GGAUCUCUACUUCUAUAAGTT against Kif27, inactive: -0.0725.

The values above are taken from PubChem BioAssay AID1508600 (Functional Genomics Laboratory (NCATS/FGL), 2020).
